The values are deposited in ChEMBL (CHEMBL3988442, “University of Dundee, Small-Polar-MMV Screening Library” (2021)).

Values are the deposited “Percent Effect”, in %. The controls that fix the scale are not given in the record; negative values are as filed. The compounds are a random part of those screened. Two or more numbers in one place are separate tests of the same structure; such repeats can differ widely.

Mtb cholesterol medium: 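Whole-cell growth test on Mycobacterium tuberculosis, read after 4 days in a medium based on cholesterol and the lipid DPPC; the read-out is not stated. Compounds at 50 µM. Higher reads as more growth inhibition (inferred: compounds with an IC50 in retests scored well above the rest). Size under these conditions: about 69,000 compounds, about 370 of them at 50% or above in at least one test.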
Mtb glucose medium: 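Phenotypic screen: M. tuberculosis growth, glucose 7H9 medium, 3 days; the read-out is not stated. Compounds at 50 µM. Higher reads as more growth inhibition (inferred: compounds with an IC50 in retests scored well above the rest). About 69,000 compounds were tested under these conditions; 1.1% (about 760) showed 50% or more at least once.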

| SMILES | Mtb cholesterol medium | Mtb glucose medium |
|---|---|---|
| `CCc1n[nH]c(SCC(=O)N2CCc3[nH]nc(C4CCC4)c3C2)n1` | -13.26 | -19.72 |
| `COC(=O)c1cc(OC)ccc1NCC(=O)NCC(=O)N1CCCC1` | -8.273 | 3.931 |
| `CC(C)c1n[nH]c(C2CN(Cc3nnc(C4CC4)o3)CCO2)n1` (centres unmarked) | -1.461 | 3.328 |
| `CN(C)c1nccnc1C1CCCN(c2cnccn2)C1` (centres unmarked) | 6.034 and 16.26 | 12.16 |
| `CCCc1n[nH]c(C2CN(C(=O)C3=COCCC3)CCO2)n1` (centres unmarked) | 4.065 | 21.61 |
| `O=C(O)C(=O)O.c1ccc2c(c1)SCCC2NCc1ccc(N2CCOCC2)cc1` (centres unmarked) | -2.545 | -3.48 |
| `COCCCN1Cc2cccc(NC(=O)c3ccccc3C)c2C1` | 29.85 and 3.812 | 22.85 |
| `CC(C)c1ccc(OCCNC(=O)CN2CCN(C)CC2C)cc1` (centres unmarked) | 5.658 | 5.578 |
| `O=C(c1nc(=O)[nH][nH]1)N1CCCCCC1` | 13.29 | -1.135 |
| `O=C(c1cnc(-c2cnccn2)s1)N1CCCC(n2cccn2)C1` (centres unmarked) | 10.53 | -4.668 |
| `O=C(NC1CCCC1)c1cc(Sc2ncccn2)ccn1` | 4.321 | 12.96 and -24.75 |
| `O=C(NC1COC2(CCN(Cc3cccs3)CC2)C1)c1ccccn1.O=C(O)C(F)(F)F` (centres unmarked) | 7.49 and -3.645 | 5.283 and 2.145 |
| `CC(Cn1cc(Br)cn1)C(=O)Nc1ccncc1` (centres unmarked) | -3.65 | 55.16 |
| `COc1ccc(OC)c(CN2CCCCCC2c2cccs2)c1` (centres unmarked) | 8.758 | 9.138 |
| `Cc1csc(N2CCN(C(=O)c3cc(C4CC4)[nH]n3)CC2)n1` | -11.59 | 8.478 |
| `CCN(CC)c1nc(C)cc(C(=O)Nc2ccc(Br)cc2)n1` | 13.41 | 13.3 |
| `Cc1cccc(-c2nc3cc(S(=O)(=O)N4CCCC4)ccc3n2C)n1` | -31.95 | -28.31 |
| `Nc1nc(CCCNC(=O)c2ccc(C3CCCNC3)cc2)cs1` (centres unmarked) | 4.635 | 4.241 |
| `CN(C)CC1CSCCCN1C(=O)c1ccc(-c2ccccc2)cc1` (centres unmarked) | -4.83 | 22.11 |
| `O=C(NCC(=O)N1CCCC1Cc1cccc(F)c1)c1ccccn1` (centres unmarked) | 6.614 | -1.235 |
| `CN(C)C(=O)CNC(=O)CCn1ncc2c(Cl)cccc21` | -10.54 | -8.015 |
| `CSc1ccc(NCC(=O)NCC2CC2)cc1F` | 3.023 | 13.11 and 8.679 |
| `CCC1CN(CC(=O)N2CCN(C(C)=O)CC2)CCN1CCOC` (centres unmarked) | -20.95 | -0.3976 |
| `COC(=O)N1CCC(NC(=O)CC(C)CCc2ccccc2)CC1` (centres unmarked) | 1.173 | 17.17 |
| `COc1ccc(OCCc2sc(C3(O)CCCNCC3)nc2C)cc1.Cl` (centres unmarked) | 14.9 | 40.84 |
| `CCC(C(=O)NCC1=CCCN(C)C1)c1ccccc1` (centres unmarked) | 16.5 | 0.4426 |
| `O=C(O)C(F)(F)F.c1cnc(N2CCOC3(CCN(CC4CCOC4)CC3)C2)nc1` (centres unmarked) | 5.186 | 7.705 |
| `CCOCCN1CCC=C(C2c3nc[nH]c3CCN2C(C)=O)C1` (centres unmarked) | 13.34 | 7.09 |
| `Cc1nn(C)c2ncc(C(=O)N3CCNC(=O)C3)cc12` | 0.9364 | 7.695 |
| `CNC(=O)CN1C(=O)CCC12CCCN(Cc1ccccc1F)C2` (centres unmarked) | 5.495 | -0.2052 |
| `CC(C)c1nccc(CN(C)Cc2cccc(-n3cccn3)c2)n1` | 4.319 | 11.61 |
| `Nc1nccc(N2CCNC(C(=O)NCc3ccccn3)C2)n1` (centres unmarked) | -6.655 | -36.63 |
| `Cc1nn(C2CCCC2)c2c1C(c1ccc3c(c1)OCO3)SCC(=O)N2` (centres unmarked) | -13.66 | 7.249 |
| `Cc1c(C(=O)N2CCC(c3nc(C)n4ccsc34)CC2)cnn1C` | -17.14 | -7.325 |
| `CC1(c2ccc(Br)cc2)CC(=O)N(CCC(N)=O)C1=O` (centres unmarked) | -17.83 | -13.65 |
| `COCCN(C)C[C@@H]1CN(C(=O)c2ccc(O)c(C)c2)C[C@@H]1CO` | 8.171 | 16.04 |
| `CCN1CCC2(CCN(c3ncccn3)CC2)C1=O.O=C(O)C(F)(F)F` | -1.126 and -7.791 | -19.05 |
| `Cc1cnn(CC2CCCCN2C(=O)c2nccnc2N)c1` (centres unmarked) | 8.094 | 13.07 |
| `CCc1nc(C2CCCN(C(=O)c3ccc4[nH]nnc4c3)C2)no1` (centres unmarked) | 2.738 | 16.44 |
| `Cc1cc(C(=O)NC(C)Cc2cccc(Cl)c2)n(C)n1` (centres unmarked) | 16.06 | 47.81 |
| `Cc1ncsc1-c1nnc(C2CCN(Cc3ccccc3Cl)CC2)o1` | -8.142 | 10.99 |
| `CN(Cc1cccc(-n2cccn2)c1)C(=O)c1cccc(N(C)C)c1` | 0.8951 | -20.58 |
| `O=C(O)C(F)(F)F.O=C(O)C(F)(F)F.c1cnc2c(c1)CN(C1CCOC1)CCN2CC1CC1` (centres unmarked) | -17.09 and 9.398 | -6.976 and -4.361 |
| `CNc1nc(CNC(=O)Nc2cccc(-c3ncc(C)o3)c2)cs1` | -9.559 | -21.41 |
| `O=C(NCCNC(=O)C1CCN(CC(F)(F)F)CC1)c1ccoc1` | -8.118 | -1.082 and 9.56 |
| `Cc1cccc(-c2nccnc2C2CCCN(C)C2)c1` (centres unmarked) | -5.042 and -5.865 | 4.963 |
| `Cc1cccc(NC(=O)c2cnc(C3CCCNC3)cn2)n1` (centres unmarked) | 3.163 and 7.404 | 20.39 |
| `Cc1ccc(C)c(C(=O)NC2CCC(N3C(=O)CCC3=O)CC2)c1` (centres unmarked) | -10.8 | -21.03 |
| `Cc1noc(C)c1CN1CCCC2(CCN(C(=O)N3CCOCC3)C2)C1` (centres unmarked) | 3.312 and -12.38 | 14.65 |
| `CC(C)(C)n1cc(C2=CCN(CCc3ccccn3)CC2)cn1` | -16.7 | 7.981 |
| `CCCNC(=O)Nc1ncc(-c2cccnc2)s1` | 25.41 | 27.12 |
| `CC(C)Nc1nnc(SCc2nnc(C(C)(C)C)o2)s1` | -22.42 | -26.7 |
| `COCCCC1(CO)CCCN(Cc2nccs2)C1` (centres unmarked) | 10.6 | 24.43 |
| `CCN(CC)S(=O)(=O)c1ccc(CNc2cc(C)nc(C)n2)cc1` | 17.28 | 9.514 and 9.282 |
| `Cc1ncc(C(=O)NC2CCc3nccn3C2)c(C(C)C)n1` (centres unmarked) | 1.06 | 6.355 |
| `CCCN1CCc2nc(SCc3c(C)cc(C)cc3C)[nH]c(=O)c2C1` | -21.2 | -15.58 and 4.098 |
| `NC(=O)NC(=O)CCN1CCCC1c1nc(C2CCCCC2)co1` (centres unmarked) | 4.656 | 6.086 |
| `COc1ccc(CN(CC2CCCO2)C(=O)CN2CCCCC2=O)cc1` (centres unmarked) | 0.7402 | -7.116 |
| `CCN(Cc1ccc2c(c1)OCCO2)C(=O)NCc1cc[nH]n1` | -7.876 | 9.991 |
| `O=C(Nc1cc(C(F)(F)F)c[nH]c1=O)N1CCCSCC1` | -10 | 14.01 |
| `Cc1ccc(N2CC3(CCN(c4nccs4)C3)C2)nn1` | -12.48 | 4.967 |
| `Cc1ccc(-c2nc(CC(=O)NCC3CCOC3)cs2)o1` (centres unmarked) | -6.548 | -22.29 |
| `COCCn1ccc2c(NC(=O)c3n[nH]c4c3CCCC4)cccc21` | 32.42 | 46.96 |
| `Cc1cc2c(c(-c3c[nH]c(C)n3)c1)OC(CN)C2` (centres unmarked) | 23.2 | 29.27 and 28.93 |
| `Cc1nc(NC(=O)NC2CC(=O)N(C(C)C)C2)nn1C(C)C` (centres unmarked) | -27.71 | -11.46 |
| `CN(C)C(=O)NC1COC2(CCN(Cc3ccc(Cl)c(F)c3)CC2)C1.O=C(O)C(F)(F)F` (centres unmarked) | -19.04 | 20.15 |
| `COCCn1ccc(=O)c(OCC(=O)Nc2cccc(OC)c2)c1C` | -16.48 | -12.4 |
| `CC(C)CC(NC(=O)C1=CCCC1)C(=O)N1CCC(CO)CC1` (centres unmarked) | -8.934 | 13.58 |
| `O=C(c1ccco1)N1CCCC2(CN(Cc3ccoc3)CCO2)C1` (centres unmarked) | 16.54 | 21.88 and -1.747 |
| `CN(Cc1ccc(F)cc1)C(=O)CN1CCCCC1Cn1cncn1` (centres unmarked) | -6.309 | -3.241 and 13.62 |
| `c1csc(-c2nc(CN3CCCCC3Cn3cccn3)co2)c1` (centres unmarked) | -0.8608 | -2.146 |
| `O=C([C@@H]1Cc2[nH]cnc2CN1C(=O)NC1CCCCC1)N1CCCC1` | 13.69 | -8.62 and -7.525 |
| `CC(C)(C)c1ncc(C(=O)N2CCN(C(=O)c3ccc[nH]3)CC2)c(O)n1` | -21.69 | -21.99 |
| `Cn1cc(NC(=O)Cn2c(CS(C)(=O)=O)nc3ccccc32)cn1` | -17.27 | -2.479 and -20.31 |
| `[H][C@@]12C[C@@H](O)CN1C[C@@H](Cc1ccccc1)N(Cc1ccccc1)C2` | 3.415 and -5.675 | 24.91 |
| `O=C(Cc1ccsc1)NCCc1ccoc1` | 10.03 | 35.65 |
| `CCN(CC)Cc1cc(C(=O)N2CCCC(CC)(C(=O)O)C2)c(C)o1` (centres unmarked) | 7.857 | -3.181 and 1.292 |
| `Cc1cc(N[C@H]2CN(CC(C)(C)N3CCOCC3)C[C@@H]2C2CC2)ncn1` | 16.12 | -0.9876 and -5.372 |
| `CCOC(=O)N1CCN(C(=O)c2sc(-c3ccccc3)nc2C)CC1` | 10.45 and -23.33 | -40.44 |
| `CC1CCN(C(=O)c2cccc(CN3CCOCC3)c2)CC1` | 21.43 | 32.61 |

Some entries from above, unchanged:

{"smiles": "COc1ccc(CN(CC2CCCO2)C(=O)CN2CCCCC2=O)cc1", "stereo": "centres unmarked", "Mtb cholesterol medium": 0.7402, "Mtb glucose medium": -7.116}
{"smiles": "CN(C)C(=O)NC1COC2(CCN(Cc3ccc(Cl)c(F)c3)CC2)C1.O=C(O)C(F)(F)F", "stereo": "centres unmarked", "Mtb cholesterol medium": -19.04, "Mtb glucose medium": 20.15}
{"smiles": "Cc1cccc(-c2nccnc2C2CCCN(C)C2)c1", "stereo": "centres unmarked", "Mtb cholesterol medium": "-5.042 and -5.865", "Mtb glucose medium": 4.963}
{"smiles": "CN(C)C(=O)CNC(=O)CCn1ncc2c(Cl)cccc21", "Mtb cholesterol medium": -10.54, "Mtb glucose medium": -8.015}
{"smiles": "CC(C)Nc1nnc(SCc2nnc(C(C)(C)C)o2)s1", "Mtb cholesterol medium": -22.42, "Mtb glucose medium": -26.7}
{"smiles": "COCCn1ccc2c(NC(=O)c3n[nH]c4c3CCCC4)cccc21", "Mtb cholesterol medium": 32.42, "Mtb glucose medium": 46.96}
{"smiles": "CCC1CN(CC(=O)N2CCN(C(C)=O)CC2)CCN1CCOC", "stereo": "centres unmarked", "Mtb cholesterol medium": -20.95, "Mtb glucose medium": -0.3976}
{"smiles": "O=C(O)C(=O)O.c1ccc2c(c1)SCCC2NCc1ccc(N2CCOCC2)cc1", "stereo": "centres unmarked", "Mtb cholesterol medium": -2.545, "Mtb glucose medium": -3.48}